The values that follow come from the supplement of paper PMC11348887.

Where a name gives a salt, the structure may show the parent alone. The list shows a part of the results. Most values lie at the level of the controls, where differences are scatter.

Common to all, as to details: 5 µM; treatment: days 7-14 after plating, readout day 21
Test [1] has as its system hPSC-derived cortical neurons (WA09). The experiment in a line: nucleus area z-score vs screen plate; higher = larger nuclei (more mature).
Test [2] has the same test system. The experiment in a line: total neurite length per nucleus (MAP2) z-score; higher = more neurite growth.
Test [3] has the same test system. The experiment in a line: nucleus roundness z-score vs screen plate; higher = rounder nuclei (more mature).
Test [4] shares this test system. The test is described as follows: KCl-induced FOS+/EGR-1+ double-positive nuclei fraction z-score (KCl minus unstimulated); higher = stronger activity-induced IEG response.

In turn, `Cc1ncc(C[n+]2csc(CCO)c2C)c(N)n1` [Thiamine HCl (Vitamin B1)] came in with a nucleus area z-score in test [1] of 0.29. The “total neurite length per nucleus (z-score)” value in test [2] came to 0.237. Moreover, in test [3], the nucleus roundness z-score is 0.594. For the same compound, the “KCl-induced FOS+/EGR-1+ double-positive nuclei fraction z-score” value in test [4] is -0.626.

With `Clc1ccc(C(Cn2ccnc2)OCc2ccsc2Cl)c(Cl)c1` (centres undefined) [Tioconazole], the nucleus area z-score in test [1] is -0.656. Further, the “total neurite length per nucleus (z-score)” value in test [2] came to 0.43. In test [3], the nucleus roundness z-score was 0.588. The “KCl-induced FOS+/EGR-1+ double-positive nuclei fraction z-score” value in test [4] is 0.136.

The compound `NCCCC(O)(P(=O)(O)O)P(=O)(O)O` [Alendronate sodium trihydrate] gave a nucleus area z-score in test [1] of -0.296. Moreover, in test [2], the “total neurite length per nucleus (z-score)” value is 0.369. The compound further returned a nucleus roundness z-score in test [3] of 0.292. Also, the “KCl-induced FOS+/EGR-1+ double-positive nuclei fraction z-score” value in test [4] was -0.424.

For `C[N+]1(C)CCC(=C(c2ccccc2)c2ccccc2)CC1` [Diphemanil Methylsulfate], the nucleus area z-score in test [1] was -0.232. Besides, the “total neurite length per nucleus (z-score)” value in test [2] was found to be 0.00267. Besides, in test [3], the nucleus roundness z-score was 0.376. Also, in test [4], the “KCl-induced FOS+/EGR-1+ double-positive nuclei fraction z-score” value is 0.549.

In test [1], `CC#CCn1c(N2CCC[C@@H](N)C2)nc2c1c(=O)n(Cc1nc(C)c3ccccc3n1)c(=O)n2C` [Linagliptin] came in with a nucleus area z-score of 0.367. The “total neurite length per nucleus (z-score)” value in test [2] was 0.884. In test [3], this compound displayed a nucleus roundness z-score of 0.631. For the same compound, in test [4], the “KCl-induced FOS+/EGR-1+ double-positive nuclei fraction z-score” value was found to be 0.715.

In the case of `COc1cc2/c(=N/c3ccc(Br)cc3F)nc[nH]c2cc1OCC1CCN(C)CC1` [Vandetanib (ZD6474)], the nucleus area z-score in test [1] was determined as 0.0782. For the same compound, the “total neurite length per nucleus (z-score)” value in test [2] turned out to be 0.927. Further, the nucleus roundness z-score in test [3] stood at 0.246. In test [4], the “KCl-induced FOS+/EGR-1+ double-positive nuclei fraction z-score” value was determined as 0.16.
